Literature values as cited in patent US11666570B2, “Diagnosis and regulation of epidermal differentiation and cancer cell activity” (The Board of Trustees of the Leland Stanford Junior …, priority 2019, dated 2023).
Some of these results come from one statement about several compounds together. At least one structure is not confirmed: it was looked up by name or label, or the drawing left a doubt.

Test system: active oncogenic RET kinases
Conditions: read-out: inhibitory activity (IC50) towards active oncogenic RET kinases; cited from earlier work

Cc1ccc(-c2nn(C(C)(C)C)c3ncnc(N)c23)cc1 [PP1]
IC50: ≤ 100 nM

CC(C)(C)n1nc(-c2ccc(Cl)cc2)c2c(N)ncnc21 [PP2]
IC50: ≤ 100 nM
